Some of the results follow.

Amino acid sequences for entries named in this document (tags omitted).
UniProt Q0JBA9, entry or part of it: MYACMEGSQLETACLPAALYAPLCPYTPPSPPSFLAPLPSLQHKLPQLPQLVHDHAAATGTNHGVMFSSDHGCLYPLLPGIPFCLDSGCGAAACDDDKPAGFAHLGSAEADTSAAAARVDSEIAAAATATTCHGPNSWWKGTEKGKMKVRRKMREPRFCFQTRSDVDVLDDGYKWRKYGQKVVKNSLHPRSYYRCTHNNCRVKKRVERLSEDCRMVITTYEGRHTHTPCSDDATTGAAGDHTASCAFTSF

The assay deals with OsWRKY34 (Oryza sativa, UniProt Q0JBA9 1-250). As to the kind of experiment: protein-binding microarray (RPBM); PBS, 2% BSA, 51.3 ng/ul salmon testes DNA, 50 uM zinc acetate, 200 nM TF, 25 C, 1 h; high values mean tight binding. As to conditions: protein: recombinant; tags: N-terminal polyhistidine and DsRed monomer fusion (pET32a); label: CyDye5-dUTP incorporated in the synthesized complementary strand; 3' TTTTT single-stranded linker to array surface; dsDNA, one strand shown. The procedure, abridged: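 The binding signal for each feature is its fluorescence intensity in arbitrary units. An Axon 4000B scanner was used to read a custom Agilent array that had been made double-stranded with Cy5-dUTP primer extension, blocked with 2% BSA, incubated at 25 °C for 1 h with 200 nM protein in PBS, 2% BSA, salmon testes DNA and 50 µM zinc acetate, and washed. The protein was an N-terminal polyhistidine–DsRed transcription factor fusion from E. coli BL21-CodonPlus, purified on Ni–NTA.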
Turning to “GGCAAACAATGCTCTCAGCCTCGCTTAGCTTTCACTCCACCGGAGTCACCTAGTGCAG”, the binding signal was 8030 fluorescence intensity (a.u.).

Consider “CATGCACGGTAACTTTTTCAGTTTTTAAATCTACAGTATGCGGAGTCACCTAGTGCAG”, for which the binding signal was 8610 fluorescence intensity (a.u.). With “TCATTTATAAATATACCATTTCGCTTATTGTCCCCATAAGCGGAGTCACCTAGTGCAG” the figure was 8060 fluorescence intensity (a.u.); with “TTTGCATTTATCCGTTTTCTGGCTGAATCATTCCCTGCAACGGAGTCACCTAGTGCAG”, 9420 fluorescence intensity (a.u.); with “CCAACTGTCCACAGTGTCACTCTGACCCATTTCGTTTATACGGAGTCACCTAGTGCAG”, 8110 fluorescence intensity (a.u.). Consider “CCCCACCACCGCGCCTGAATTTTTTCCTTTGCACTGGCGCCGGAGTCACCTAGTGCAG”, for which the binding signal was 12700 fluorescence intensity (a.u.). With “CATTTCCATTCTTCAGAAGTTCACCCTTCAATCCCTTTTTCGGAGTCACCTAGTGCAG” the figure was 8600 fluorescence intensity (a.u.); with “ACATATACGTAATATTCGTGGGCACTAGGATTTGAAACCTCGGAGTCACCTAGTGCAG”, 8660 fluorescence intensity (a.u.). For “TCCACTAGAAGTATACATCATGTCATTAACATCCATTTTCCGGAGTCACCTAGTGCAG”, the binding signal was 9870 fluorescence intensity (a.u.). With “ATGCTCCTATTTATGTGTTCCATTCCATTTTCTTTAGGAGCGGAGTCACCTAGTGCAG” the figure was 10300 fluorescence intensity (a.u.); with “GCTACCGCACACATACTGCCATTTGGCTAACAATTTTATCCGGAGTCACCTAGTGCAG”, 8490 fluorescence intensity (a.u.).

With “GAGGAACAAGTGGGTGGGTCCAGTGGGATGTGCATGTGGGCGGAGTCACCTAGTGCAG”, the binding signal was 9220 fluorescence intensity (a.u.). With “CATTTTGTCTATGCATTCTCTTCTGTTTCTATCTGTTGATCGGAGTCACCTAGTGCAG” the figure was 9630 fluorescence intensity (a.u.); with “TTACATCAAAACTTTCTTACACACACAAACTTTCAACTTTCGGAGTCACCTAGTGCAG”, 8550 fluorescence intensity (a.u.); with “GTTCTAGAATGTCCTGTTTAACATCACACTCGATTGGACACGGAGTCACCTAGTGCAG”, 9410 fluorescence intensity (a.u.).

As to “ATGTGCTTACGGTTGACTTATATAGTCTGCTATCGTACCTCGGAGTCACCTAGTGCAG”, the binding signal is 10600 fluorescence intensity (a.u.).

On to “ACAGATATTTTCGCTTTTCAACCAGCGTTGACTCGTCGTTCGGAGTCACCTAGTGCAG”, for which the binding signal is 13400 fluorescence intensity (a.u.). With “TCTGCCTGTACCACTAATCTTCAAGCGAGCAAAGGCAAACCGGAGTCACCTAGTGCAG” the figure was 8220 fluorescence intensity (a.u.); with “TGGCGAGGAGGTGGTGGTGGTTGTGGTGGGTGCGGCCATGCGGAGTCACCTAGTGCAG”, 12100 fluorescence intensity (a.u.). With “ATGCCGATGCCCATGCTTCATTTCTCAAGTTCTTTAATATCGGAGTCACCTAGTGCAG” the figure was 9120 fluorescence intensity (a.u.); with “TACTACCTCCGTTTTTAATAGATGACGCCGTTGACTTTTTCGGAGTCACCTAGTGCAG”, 23700 fluorescence intensity (a.u.). With “TCCCAACCGCCCGCCCGCGCGCCGCCCCTTCCTGCCGCCCCGGAGTCACCTAGTGCAG” the figure was 8080 fluorescence intensity (a.u.). Regarding “GGGCAGTTCAGTTTTCTTTTGGTTTATATATTCCTACTAGCGGAGTCACCTAGTGCAG”, the binding signal was 10100 fluorescence intensity (a.u.). With “TGTCTAGTTAGCTGAATTCATCTCGATCCTTTTATTAATTCGGAGTCACCTAGTGCAG” the figure was 8820 fluorescence intensity (a.u.); with “ACCACCCGCGCGACCTGTGCTCGCGTCTTTTTGGCGCCGCCGGAGTCACCTAGTGCAG”, 12300 fluorescence intensity (a.u.); with “GGTAGCGGTGTGTGGAGGAGAGCATTGGCAGTTAGAGGGTCGGAGTCACCTAGTGCAG”, 9820 fluorescence intensity (a.u.).

Consider “TGGTTGTTGAGGTTTATATAAGTGTTCGACCGGTATCGCTCGGAGTCACCTAGTGCAG”, for which the binding signal is 8050 fluorescence intensity (a.u.). With “CAAGACCCTGATAAATTGGTTGCTCTCGTCTCTTCTTGCTCGGAGTCACCTAGTGCAG” the figure was 8030 fluorescence intensity (a.u.); with “TAAGCCGAACCTTTCATTTGATAATTGTCACTTGTTCTTGCGGAGTCACCTAGTGCAG”, 8520 fluorescence intensity (a.u.). With “TGTCCTGCGTAATTAGCACATCACATTCAGCTTTCTGCTTCGGAGTCACCTAGTGCAG” the figure was 8970 fluorescence intensity (a.u.); with “CTCCGCCGTCGTTCCTGCAGCTTCCGCCGCATCCTCGCCGCGGAGTCACCTAGTGCAG”, 9250 fluorescence intensity (a.u.); with “ATGAATAGTACATTATGCGTGACTTATGTTTTTTATTTTTCGGAGTCACCTAGTGCAG”, 8520 fluorescence intensity (a.u.). For the sequence “TGCCAACAATGGTGTAAATTTCTATCTCCATCCTTTATTTCGGAGTCACCTAGTGCAG”, the binding signal was 9930 fluorescence intensity (a.u.). With “GTTCTGGTTGGGATCGATTTCTTCTTCCCCTTTGTTGCTTCGGAGTCACCTAGTGCAG” the figure was 9700 fluorescence intensity (a.u.). With “GATGTGGGTAGTATGGATTTTTTTTTCTGTTTGTCCTCCACGGAGTCACCTAGTGCAG” the figure was 12900 fluorescence intensity (a.u.); with “GTATATTCTGATTCAATTATAATTTCCCCATCGATCATTTCGGAGTCACCTAGTGCAG”, 9110 fluorescence intensity (a.u.). As to “ATGTACATCTCTCGCGATCCAATCCATGTCTCGTCTCTATCGGAGTCACCTAGTGCAG”, the binding signal was 9620 fluorescence intensity (a.u.). Turning to “GAATCGTAACCCATGTTTTTAAATTTTTATTTTTGTTCGGCGGAGTCACCTAGTGCAG”, the binding signal is 8470 fluorescence intensity (a.u.). With “CCTGCAGAAGTCTCCATCCTTGCATCACACGTACACATCTCGGAGTCACCTAGTGCAG” the figure was 11500 fluorescence intensity (a.u.); with “ACCCACTTTGTTGTCTAATTTTTGTAGACTGGACAAGTATCGGAGTCACCTAGTGCAG”, 8730 fluorescence intensity (a.u.); with “GCCCGTGCACATCAACGCCGCCACCTCCACCAAATTCGGCCGGAGTCACCTAGTGCAG”, 11400 fluorescence intensity (a.u.). With “AGACGCATTAATTTGTTCACCACTCGATCCTCGCCATTACCGGAGTCACCTAGTGCAG” the figure was 8270 fluorescence intensity (a.u.).

For the origin of these results see paper PMC7819943, “Rice protein-binding microarrays: a tool to detect cis-acting elements near promoter regions in rice”.
